According to paper PMC10400764:
These are yes or no findings as the source states them, for the method shown. Binding seen in cells or lysates may run through a third protein. Some results given as binding are weak or reduced against the parent protein; the word gives no strength.

Target: PDGFRβ (human (endogenous in HUVEC and HBVP)) (UniProt P09619)
Assay: co-IP; HBVPs treated with lenvatinib at different concentrations for 2 h, then 60 ng/ml VEGF and 20 ng/ml PDGF-BB; lysate precipitated with PDGFRβ antibody, Protein A/G magnetic beads, blots for VEGFR2 and NRP-1

- binding: binds
Substance: VEGFR2 (from UniProt P35968 20-1356) (receptor)
